# Test results as given in the supplement of paper PMC6411743.
# Protein sequences, listed by entry. Tags and fused reporters are not part of them. Lines headed by an entry give the natural chain unless they say otherwise; changes in a name come on top.
# UniProt Q9GZT9: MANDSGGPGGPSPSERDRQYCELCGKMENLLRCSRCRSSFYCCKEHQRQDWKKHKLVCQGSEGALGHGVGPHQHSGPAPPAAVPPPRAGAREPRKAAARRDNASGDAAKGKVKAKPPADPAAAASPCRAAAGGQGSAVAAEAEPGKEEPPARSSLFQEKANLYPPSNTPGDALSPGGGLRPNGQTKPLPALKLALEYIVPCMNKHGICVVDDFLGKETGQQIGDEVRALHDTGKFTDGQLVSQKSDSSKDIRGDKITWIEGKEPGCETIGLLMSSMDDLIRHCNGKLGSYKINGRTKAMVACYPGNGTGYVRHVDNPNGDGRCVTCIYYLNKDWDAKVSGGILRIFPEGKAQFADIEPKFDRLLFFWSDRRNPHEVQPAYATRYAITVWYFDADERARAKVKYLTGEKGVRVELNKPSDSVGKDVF
# UniProt Q9H0B6: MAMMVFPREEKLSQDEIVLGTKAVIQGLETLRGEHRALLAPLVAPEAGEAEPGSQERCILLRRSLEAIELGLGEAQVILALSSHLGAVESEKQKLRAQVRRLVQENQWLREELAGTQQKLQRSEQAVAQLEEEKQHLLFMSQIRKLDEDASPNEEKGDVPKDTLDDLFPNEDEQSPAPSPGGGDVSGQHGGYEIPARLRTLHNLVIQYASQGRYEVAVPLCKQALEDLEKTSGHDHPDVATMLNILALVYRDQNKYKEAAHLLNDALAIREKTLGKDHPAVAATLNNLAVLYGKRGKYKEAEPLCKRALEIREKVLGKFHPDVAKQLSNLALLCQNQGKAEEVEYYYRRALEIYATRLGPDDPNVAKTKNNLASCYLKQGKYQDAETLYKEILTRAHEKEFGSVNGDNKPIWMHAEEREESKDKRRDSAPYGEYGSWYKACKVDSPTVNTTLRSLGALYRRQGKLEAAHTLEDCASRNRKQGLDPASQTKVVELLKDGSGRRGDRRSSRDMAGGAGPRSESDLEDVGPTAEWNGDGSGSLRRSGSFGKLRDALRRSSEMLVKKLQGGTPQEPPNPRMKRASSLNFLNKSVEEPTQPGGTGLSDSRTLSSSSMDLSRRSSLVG
# UniProt Q9H7Z7: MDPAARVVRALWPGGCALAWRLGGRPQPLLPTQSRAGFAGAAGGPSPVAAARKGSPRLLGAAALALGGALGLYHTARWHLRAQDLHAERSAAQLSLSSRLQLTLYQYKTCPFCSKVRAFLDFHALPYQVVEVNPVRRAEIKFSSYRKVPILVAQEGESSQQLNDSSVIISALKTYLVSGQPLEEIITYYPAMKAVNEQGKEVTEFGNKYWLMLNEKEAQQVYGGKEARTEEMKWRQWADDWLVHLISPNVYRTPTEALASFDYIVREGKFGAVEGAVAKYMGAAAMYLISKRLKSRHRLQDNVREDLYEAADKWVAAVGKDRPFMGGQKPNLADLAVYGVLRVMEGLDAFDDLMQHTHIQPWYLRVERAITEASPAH
# UniProt Q9HBH1: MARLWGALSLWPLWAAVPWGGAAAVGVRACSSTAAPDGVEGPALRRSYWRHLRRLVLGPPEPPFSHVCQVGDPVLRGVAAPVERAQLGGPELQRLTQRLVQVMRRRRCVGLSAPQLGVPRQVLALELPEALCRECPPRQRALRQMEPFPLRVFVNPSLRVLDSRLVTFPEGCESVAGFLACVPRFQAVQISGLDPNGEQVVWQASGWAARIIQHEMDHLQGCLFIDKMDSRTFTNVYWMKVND
# UniProt Q9H9A7: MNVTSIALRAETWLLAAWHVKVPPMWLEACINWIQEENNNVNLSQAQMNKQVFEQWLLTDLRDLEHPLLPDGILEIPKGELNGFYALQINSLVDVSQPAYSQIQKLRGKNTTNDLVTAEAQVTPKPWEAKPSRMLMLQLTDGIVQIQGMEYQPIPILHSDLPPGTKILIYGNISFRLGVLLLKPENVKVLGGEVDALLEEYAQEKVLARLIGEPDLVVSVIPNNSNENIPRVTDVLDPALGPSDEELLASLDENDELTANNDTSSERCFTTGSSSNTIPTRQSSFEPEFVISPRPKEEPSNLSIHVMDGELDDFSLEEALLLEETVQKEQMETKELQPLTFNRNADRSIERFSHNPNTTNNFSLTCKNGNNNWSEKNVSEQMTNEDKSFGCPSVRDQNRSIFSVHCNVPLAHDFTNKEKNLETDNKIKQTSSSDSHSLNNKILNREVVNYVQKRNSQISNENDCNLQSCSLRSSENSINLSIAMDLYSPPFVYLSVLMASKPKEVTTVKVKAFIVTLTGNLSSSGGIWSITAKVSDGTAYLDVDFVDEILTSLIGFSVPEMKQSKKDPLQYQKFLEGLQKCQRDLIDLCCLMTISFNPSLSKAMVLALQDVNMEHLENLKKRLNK
# UniProt Q9H3Z4: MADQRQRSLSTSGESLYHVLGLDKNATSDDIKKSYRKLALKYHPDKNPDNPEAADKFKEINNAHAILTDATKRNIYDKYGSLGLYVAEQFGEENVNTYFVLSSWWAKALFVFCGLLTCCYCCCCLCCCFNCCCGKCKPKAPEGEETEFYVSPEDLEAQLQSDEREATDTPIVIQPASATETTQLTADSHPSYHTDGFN
# UniProt Q9NQE9: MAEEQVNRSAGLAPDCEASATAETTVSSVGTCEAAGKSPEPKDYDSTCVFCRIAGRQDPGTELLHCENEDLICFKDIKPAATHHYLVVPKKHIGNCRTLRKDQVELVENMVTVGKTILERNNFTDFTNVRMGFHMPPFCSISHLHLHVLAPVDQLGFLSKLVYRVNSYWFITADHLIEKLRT
# UniProt Q9HAT8: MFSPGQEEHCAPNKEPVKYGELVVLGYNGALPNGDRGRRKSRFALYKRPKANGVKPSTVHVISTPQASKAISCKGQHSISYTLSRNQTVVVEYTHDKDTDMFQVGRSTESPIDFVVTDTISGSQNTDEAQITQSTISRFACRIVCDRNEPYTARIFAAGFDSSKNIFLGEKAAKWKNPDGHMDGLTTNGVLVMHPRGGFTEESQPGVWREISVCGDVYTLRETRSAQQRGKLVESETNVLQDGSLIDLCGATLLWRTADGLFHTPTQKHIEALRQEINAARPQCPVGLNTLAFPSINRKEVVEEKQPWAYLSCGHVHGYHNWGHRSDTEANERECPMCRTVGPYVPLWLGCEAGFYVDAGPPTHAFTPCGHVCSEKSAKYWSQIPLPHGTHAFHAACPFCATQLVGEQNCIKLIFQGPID
# UniProt Q9H4A6: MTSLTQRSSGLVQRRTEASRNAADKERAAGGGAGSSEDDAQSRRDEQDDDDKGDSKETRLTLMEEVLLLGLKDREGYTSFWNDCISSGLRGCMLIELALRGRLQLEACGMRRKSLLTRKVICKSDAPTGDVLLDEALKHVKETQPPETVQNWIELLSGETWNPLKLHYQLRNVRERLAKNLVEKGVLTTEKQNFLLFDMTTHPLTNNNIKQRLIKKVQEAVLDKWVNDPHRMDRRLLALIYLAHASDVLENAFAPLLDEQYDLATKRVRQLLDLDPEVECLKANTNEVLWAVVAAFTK
# UniProt Q9HCG8: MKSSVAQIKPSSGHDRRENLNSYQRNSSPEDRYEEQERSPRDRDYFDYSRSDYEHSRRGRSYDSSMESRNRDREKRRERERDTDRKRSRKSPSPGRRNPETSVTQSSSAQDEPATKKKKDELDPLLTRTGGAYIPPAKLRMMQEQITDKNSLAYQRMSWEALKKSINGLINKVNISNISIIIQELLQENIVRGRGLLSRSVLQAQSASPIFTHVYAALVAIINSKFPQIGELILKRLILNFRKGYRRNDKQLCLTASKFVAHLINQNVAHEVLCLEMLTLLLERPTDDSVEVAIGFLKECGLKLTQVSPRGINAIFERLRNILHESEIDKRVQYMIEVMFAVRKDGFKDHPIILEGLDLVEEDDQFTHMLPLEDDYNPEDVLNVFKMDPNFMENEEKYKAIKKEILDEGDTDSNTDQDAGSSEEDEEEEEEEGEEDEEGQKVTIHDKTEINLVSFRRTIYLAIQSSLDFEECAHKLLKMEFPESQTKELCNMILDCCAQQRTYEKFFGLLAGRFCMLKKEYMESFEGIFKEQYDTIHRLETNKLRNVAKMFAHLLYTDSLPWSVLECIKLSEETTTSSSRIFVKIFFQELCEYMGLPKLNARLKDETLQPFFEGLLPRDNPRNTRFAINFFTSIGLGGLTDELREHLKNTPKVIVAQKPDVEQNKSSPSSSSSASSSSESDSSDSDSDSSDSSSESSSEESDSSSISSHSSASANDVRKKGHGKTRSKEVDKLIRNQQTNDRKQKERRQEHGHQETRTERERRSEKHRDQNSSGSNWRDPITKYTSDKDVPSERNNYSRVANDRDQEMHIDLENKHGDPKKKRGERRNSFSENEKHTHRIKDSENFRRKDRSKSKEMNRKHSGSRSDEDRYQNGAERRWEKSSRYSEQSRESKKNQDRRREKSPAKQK
# UniProt Q9H1E5: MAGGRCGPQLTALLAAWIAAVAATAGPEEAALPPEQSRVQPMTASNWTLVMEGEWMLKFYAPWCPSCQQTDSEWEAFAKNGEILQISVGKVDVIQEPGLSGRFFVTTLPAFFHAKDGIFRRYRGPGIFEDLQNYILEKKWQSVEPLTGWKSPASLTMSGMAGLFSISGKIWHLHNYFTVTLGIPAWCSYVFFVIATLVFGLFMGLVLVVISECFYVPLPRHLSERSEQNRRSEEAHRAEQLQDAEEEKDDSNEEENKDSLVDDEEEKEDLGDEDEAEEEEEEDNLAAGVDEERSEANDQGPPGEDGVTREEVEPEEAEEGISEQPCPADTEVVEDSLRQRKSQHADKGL
# UniProt Q9H6R7: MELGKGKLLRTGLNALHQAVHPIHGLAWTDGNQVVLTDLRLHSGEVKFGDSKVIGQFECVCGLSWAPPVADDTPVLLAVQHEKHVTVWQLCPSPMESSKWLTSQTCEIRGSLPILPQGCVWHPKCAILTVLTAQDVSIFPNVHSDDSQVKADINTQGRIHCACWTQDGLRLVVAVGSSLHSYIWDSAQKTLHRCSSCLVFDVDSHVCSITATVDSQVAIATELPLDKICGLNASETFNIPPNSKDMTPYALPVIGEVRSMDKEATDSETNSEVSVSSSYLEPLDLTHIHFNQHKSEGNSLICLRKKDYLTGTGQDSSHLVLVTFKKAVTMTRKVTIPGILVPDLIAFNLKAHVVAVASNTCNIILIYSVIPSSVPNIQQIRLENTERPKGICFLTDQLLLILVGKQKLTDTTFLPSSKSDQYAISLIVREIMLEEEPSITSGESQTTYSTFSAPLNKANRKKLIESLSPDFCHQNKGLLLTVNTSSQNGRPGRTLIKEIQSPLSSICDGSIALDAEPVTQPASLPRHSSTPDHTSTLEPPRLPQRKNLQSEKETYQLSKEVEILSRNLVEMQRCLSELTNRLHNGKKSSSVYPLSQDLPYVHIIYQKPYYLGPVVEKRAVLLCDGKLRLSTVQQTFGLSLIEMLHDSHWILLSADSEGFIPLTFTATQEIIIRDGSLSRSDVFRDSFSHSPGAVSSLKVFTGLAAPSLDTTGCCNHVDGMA
# UniProt Q9HCS7: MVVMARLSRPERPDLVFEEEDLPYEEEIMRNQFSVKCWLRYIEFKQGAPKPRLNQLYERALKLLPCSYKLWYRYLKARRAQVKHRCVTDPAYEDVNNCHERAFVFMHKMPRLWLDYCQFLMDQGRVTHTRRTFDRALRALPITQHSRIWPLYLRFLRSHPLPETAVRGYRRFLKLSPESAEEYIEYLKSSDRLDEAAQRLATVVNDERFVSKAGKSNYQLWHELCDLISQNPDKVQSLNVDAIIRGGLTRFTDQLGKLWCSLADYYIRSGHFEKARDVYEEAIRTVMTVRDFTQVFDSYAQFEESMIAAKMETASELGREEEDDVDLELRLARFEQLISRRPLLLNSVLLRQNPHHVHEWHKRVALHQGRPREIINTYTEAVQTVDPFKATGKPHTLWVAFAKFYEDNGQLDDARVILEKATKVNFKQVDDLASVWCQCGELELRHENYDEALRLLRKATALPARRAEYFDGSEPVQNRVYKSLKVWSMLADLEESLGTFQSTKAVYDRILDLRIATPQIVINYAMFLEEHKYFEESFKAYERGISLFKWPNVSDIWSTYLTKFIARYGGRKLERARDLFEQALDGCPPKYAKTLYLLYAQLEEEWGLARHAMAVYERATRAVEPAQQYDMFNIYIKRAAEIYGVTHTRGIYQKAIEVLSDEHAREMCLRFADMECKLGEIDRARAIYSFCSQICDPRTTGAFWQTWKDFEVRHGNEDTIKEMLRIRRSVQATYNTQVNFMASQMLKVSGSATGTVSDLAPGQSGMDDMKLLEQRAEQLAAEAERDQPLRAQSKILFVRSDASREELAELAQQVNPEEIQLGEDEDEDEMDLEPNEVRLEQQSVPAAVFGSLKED
# UniProt Q9NP66: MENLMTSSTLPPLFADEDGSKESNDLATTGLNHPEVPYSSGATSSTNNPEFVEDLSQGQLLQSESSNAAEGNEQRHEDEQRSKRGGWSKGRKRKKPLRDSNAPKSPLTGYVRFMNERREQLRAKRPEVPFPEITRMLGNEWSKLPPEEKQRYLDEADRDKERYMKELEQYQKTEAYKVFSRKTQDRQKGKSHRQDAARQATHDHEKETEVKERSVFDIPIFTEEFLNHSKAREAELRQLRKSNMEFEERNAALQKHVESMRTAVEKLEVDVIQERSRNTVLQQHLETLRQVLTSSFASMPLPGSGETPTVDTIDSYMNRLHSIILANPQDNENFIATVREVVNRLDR
# ± gives the standard deviation of the averaged measurements. Some of the results follow.
# Compound: Nc1nc2c(ncn2[C@@H]2O[C@H](COP(=O)(O)OP(=O)(O)OP(=O)(O)O)[C@@H](O)[C@H]2O)c(=O)[nH]1 [guanosine triphosphate]
# Test: NP40-soluble protein abundance relative to vehicle (solubility fold change) (ratio); higher = more soluble protein in presence of GTP
# Conditions: concentration: 2mM
# Procedure, shortened: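 Jurkat crude lysate prepared with a Dounce homogeniser was treated at eight concentrations spanning 0.1 to 10 mM, 10 min at room temperature then 3 min at 37 °C. Solubilisation with 0.8% NP40 and benzonase and ultracentrifugation preceded TMT labelling of the supernatant for LC-MS/MS. Fold change against the detergent-processed vehicle was determined per replicate from vsn-normalised intensities, across three independent experiments.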
row,Target,NP40-soluble protein abundance
1,EGLN1 (UniProt Q9GZT9),0.912 ± 0.11
2,UniProt Q9HD20 and related entries,0.962 ± 0.034
3,UniProt Q9H330 and related entries,0.809 ± 0.017
4,UPF2 (UniProt Q9HAU5),0.979 ± 0.034
5,KLC2 (UniProt Q9H0B6),0.961 ± 0.083
6,UniProt Q9HCE5,0.889 ± 0.022
7,UniProt Q9NNW7 and related entries,1.01 ± 0.063
8,PDCL3 (UniProt Q9H2J4),1.12 ± 0.15
9,UniProt Q9H7Z7 and related entries,0.889 ± 0.029
10,PDF (UniProt Q9HBH1),0.935 ± 0.015
11,UniProt Q9HDC9-2|Q9HDC9,0.88 ± 0.023
12,UniProt Q9H2D6-5|Q9H2D6 and related entries,1.07 ± 0.19
13,RMI1 (UniProt Q9H9A7),1 ± 0.017
14,UniProt Q9GZT3 and related entries,1.01 ± 0.094
15,UniProt Q9H871,1.17 ± 0.15
16,UniProt Q9H3Z4 and related entries,0.914 ± 0.1
17,HINT3 (UniProt Q9NQE9),0.955 ± 0.056
18,NANS (UniProt Q9NR45),0.914 ± 0.067
19,CPVL (UniProt Q9H3G5),0.961 ± 0.042

row,Target,NP40-soluble protein abundance
1,PELI2 (UniProt Q9HAT8),0.926 ± 0.073
2,UniProt Q9H6Z4 and related entries,0.877 ± 0.071
3,GOLPH3 (UniProt Q9H4A6),0.918 ± 0.061
4,UniProt Q9GZU8,0.911 ± 0.025
5,UniProt Q9HBE1 and related entries,1.2 ± 0.021
6,UniProt Q9H0X9 and related entries,1.06 ± 0.18
7,UniProt Q9H078 and related entries,1.06 ± 0.081
8,CWC22 (UniProt Q9HCG8),0.936 ± 0.088
9,UniProt Q9H1E5,0.866 ± 0.062
10,ETNK1 (UniProt Q9HBU6),0.978 ± 0.085
11,UniProt Q9HC36,1.21 ± 0.097
12,ATG5 (UniProt Q9H1Y0),0.946 ± 0.056
13,UTP3 (UniProt Q9NQZ2),1.04 ± 0.067
14,UNK (UniProt Q9C0B0),1.08 ± 0.032
15,UniProt Q9H6R7 and related entries,1.18 ± 0.032
16,XAB2 (UniProt Q9HCS7),1.03 ± 0.094
17,HMG20A (UniProt Q9NP66),1.21 ± 0.04
18,NMRAL1 (UniProt Q9HBL8),0.901 ± 0.051

# Same assay, conditions: concentration: 4mM
row,Target,NP40-soluble protein abundance
1,EGLN1 (UniProt Q9GZT9),0.934 ± 0.077
2,UniProt Q9HD20 and related entries,0.941 ± 0.05
3,UniProt Q9H330 and related entries,0.799 ± 0.035
4,UPF2 (UniProt Q9HAU5),0.966 ± 0.033
5,KLC2 (UniProt Q9H0B6),0.954 ± 0.067
6,UniProt Q9HCE5,0.857 ± 0.033
7,UniProt Q9NNW7 and related entries,0.946 ± 0.079
8,PDCL3 (UniProt Q9H2J4),1.09 ± 0.13
9,UniProt Q9H7Z7 and related entries,0.889 ± 0.039
10,PDF (UniProt Q9HBH1),0.976 ± 0.055
11,UniProt Q9HDC9-2|Q9HDC9,0.861 ± 0.042
12,UniProt Q9H2D6-5|Q9H2D6 and related entries,0.982 ± 0.079
13,RMI1 (UniProt Q9H9A7),1.05 ± 0.1
14,UniProt Q9GZT3 and related entries,0.961 ± 0.066
15,UniProt Q9H871,1.18 ± 0.14
16,UniProt Q9H3Z4 and related entries,0.926 ± 0.047
17,HINT3 (UniProt Q9NQE9),0.911 ± 0.033
18,NANS (UniProt Q9NR45),0.908 ± 0.066
19,CPVL (UniProt Q9H3G5),0.936 ± 0.018

row,Target,NP40-soluble protein abundance
1,PELI2 (UniProt Q9HAT8),0.94 ± 0.027
2,UniProt Q9H6Z4 and related entries,0.894 ± 0.11
3,GOLPH3 (UniProt Q9H4A6),0.906 ± 0.039
4,UniProt Q9GZU8,0.896 ± 0.016
5,UniProt Q9HBE1 and related entries,1.31 ± 0.06
6,UniProt Q9H0X9 and related entries,1.01 ± 0.036
7,UniProt Q9H078 and related entries,1.02 ± 0.098
8,CWC22 (UniProt Q9HCG8),0.911 ± 0.078
9,UniProt Q9H1E5,0.971 ± 0.06
10,ETNK1 (UniProt Q9HBU6),1.01 ± 0.072
11,UniProt Q9HC36,1.39 ± 0.15
12,ATG5 (UniProt Q9H1Y0),0.941 ± 0.063
13,UTP3 (UniProt Q9NQZ2),1.01 ± 0.097
14,UNK (UniProt Q9C0B0),1.09 ± 0.021
15,UniProt Q9H6R7 and related entries,1.07 ± 0.15
16,XAB2 (UniProt Q9HCS7),1.05 ± 0.1
17,HMG20A (UniProt Q9NP66),1.23 ± 0.11
18,NMRAL1 (UniProt Q9HBL8),0.859 ± 0.068
